This note sets out measurements from publication PMC7819943, “Rice protein-binding microarrays: a tool to detect cis-acting elements near promoter regions in rice”.

Some of the results follow.

This assay deals with T1, OsSMF1 (Oryza sativa, UniProt Q6ZLB0 1-436).
T1 sequence: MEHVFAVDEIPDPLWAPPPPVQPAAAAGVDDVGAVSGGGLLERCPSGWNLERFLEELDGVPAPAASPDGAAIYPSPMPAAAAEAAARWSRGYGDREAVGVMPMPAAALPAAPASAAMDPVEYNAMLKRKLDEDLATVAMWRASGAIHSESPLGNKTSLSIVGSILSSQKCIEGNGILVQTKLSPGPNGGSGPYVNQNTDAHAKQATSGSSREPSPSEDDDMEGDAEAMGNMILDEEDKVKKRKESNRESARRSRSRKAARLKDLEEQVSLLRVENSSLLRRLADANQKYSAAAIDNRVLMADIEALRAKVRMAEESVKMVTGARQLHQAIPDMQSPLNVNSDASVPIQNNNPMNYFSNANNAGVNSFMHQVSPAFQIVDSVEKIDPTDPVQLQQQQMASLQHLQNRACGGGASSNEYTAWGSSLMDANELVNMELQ
The assay is described as follows: protein-binding microarray (RPBM); PBS, 2% BSA, 51.3 ng/ul salmon testes DNA, 50 uM zinc acetate, 200 nM TF, 25 C, 1 h; high values mean tight binding. Conditions: protein: recombinant; tags: N-terminal polyhistidine and DsRed monomer fusion (pET32a); chain copies: 2; label: CyDye5-dUTP incorporated in the synthesized complementary strand; 3' TTTTT single-stranded linker to array surface; dsDNA, one strand shown. In short, it runs like this:
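Using Ni–NTA, transcription factors fused N-terminally to polyhistidine and DsRed were purified after expression in E. coli BL21-CodonPlus. These were incubated at 200 nM with a blocked, double-stranded custom Agilent array for 1 h at 25 °C in a buffer containing 50 µM zinc acetate, and the array was washed. The binding signal is per-feature fluorescence intensity (arbitrary units) on an Axon 4000B scanner.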
As to “CCGCGTCTCTGCGACGCGCGTGGCGCCACGAAGCGCTCCCCGGAGTCACCTAGTGCAG”, the binding signal was 4660 fluorescence intensity (a.u.).

As for “ACAGAGGACCTCACTCCTTCTCAAGTATCATCATGTATCACGGAGTCACCTAGTGCAG”, the binding signal is 3370 fluorescence intensity (a.u.).

Consider “AAGAAGTACGTCATATATTCAGTTTTATGTATTATTTTATCGGAGTCACCTAGTGCAG”, for which the binding signal was 3310 fluorescence intensity (a.u.).

For the sequence “TTAACACTCCCAATATTTTAGCACTACCCCGAAATTTCCGCGGAGTCACCTAGTGCAG”, the binding signal is 8040 fluorescence intensity (a.u.).

With “TGGCGCAGTCGCCCGTGACGCGCGGCCGCTGCCGTCGAAGCGGAGTCACCTAGTGCAG”, the binding signal is 3320 fluorescence intensity (a.u.).

As for “CGGCCTTTTCCCCGGCCCCTTCGGGGAAGCCCACCACGTGCGGAGTCACCTAGTGCAG”, the binding signal is 3570 fluorescence intensity (a.u.).

With “TGTTAATTCCACATCAGCGCTACGTCAATGCCACGTGGTACGGAGTCACCTAGTGCAG”, the binding signal was 27900 fluorescence intensity (a.u.).

For the sequence “CACACCCAACACTCCACACAAGTCAGCTCAGTGACCGCCACGGAGTCACCTAGTGCAG”, the binding signal is 4300 fluorescence intensity (a.u.).

Turning to “GGAGGGGTGCTTACGTGAGTCGACGACCATGCGGTAGGAGCGGAGTCACCTAGTGCAG”, the binding signal is 3910 fluorescence intensity (a.u.).

As for “CACCCGCAGCCCGCGCCGCTCCGTTCGCAGCGCTCGCCCGCGGAGTCACCTAGTGCAG”, the binding signal is 21700 fluorescence intensity (a.u.).

Regarding “GCAGCTTTGATCATTTCAATCAGGTGATTCAGACCAAAGTCGGAGTCACCTAGTGCAG”, the binding signal was 3180 fluorescence intensity (a.u.).

“CAATATAATTTTCTTTTCATACGTGTGATGAGTTTGAAGACGGAGTCACCTAGTGCAG”: the binding signal is 3620 fluorescence intensity (a.u.).

In the case of “GCATTCTGAAAGCCTACACGTCGATCGATTGCCAAGTCAGCGGAGTCACCTAGTGCAG”, the binding signal was 9950 fluorescence intensity (a.u.).

For “TTCGCTGACACGCCCCGTCCACTCTTGTCCACGCTGCGCCCGGAGTCACCTAGTGCAG”, the binding signal was 3380 fluorescence intensity (a.u.).

Take “CCGAATCAGCTGCTGACGTATCGCCTCCGCCATTACCACCCGGAGTCACCTAGTGCAG”: the binding signal is 10600 fluorescence intensity (a.u.).

Turning to “CCCATGGCGTAAGCCCTCCTGCATAGCTGGCGTCTTTACCCGGAGTCACCTAGTGCAG”, the binding signal is 5640 fluorescence intensity (a.u.).

As for “TGCGAGGTCTGCCCAAGTCCACGTTCATTGATTGGTTAACCGGAGTCACCTAGTGCAG”, the binding signal was 3340 fluorescence intensity (a.u.).

“CACGTAAGCGTCACGTCAATGCCACGTGGGACGGTGACCTCGGAGTCACCTAGTGCAG”: the binding signal was 27900 fluorescence intensity (a.u.).

Regarding “GGGCTTCTCCAGGTTTACGGTTAAGGGATGAGTCAGATTCCGGAGTCACCTAGTGCAG”, the binding signal was 7310 fluorescence intensity (a.u.).

For “GGAGAGCTTTACAGTCGGTCAACGTGGAGGCTATGGGTACCGGAGTCACCTAGTGCAG”, the binding signal is 4280 fluorescence intensity (a.u.).

On to “TCAGAGATCACAGTATCGTCGTCACAGTGACTAAATGCAGCGGAGTCACCTAGTGCAG”, for which the binding signal was 4550 fluorescence intensity (a.u.).

For “ACTATCAGGAAGCCCAGGAAGCCCACGTACGCCGGCACCCCGGAGTCACCTAGTGCAG”, the binding signal is 3440 fluorescence intensity (a.u.).

Consider “GCAGGGCAGGCTGACAGCTCATCTTCTCAGAGGATCCGATCGGAGTCACCTAGTGCAG”, for which the binding signal was 5100 fluorescence intensity (a.u.).

“TGCATACTCCTACTCATTTGCCCACTCTGTGCAGGCAGTGCGGAGTCACCTAGTGCAG”: the binding signal is 3880 fluorescence intensity (a.u.).

Consider “TGGTGGGGCTGGCACACTTGTCATCACCTGACTTCAGTAGCGGAGTCACCTAGTGCAG”, for which the binding signal was 6410 fluorescence intensity (a.u.).

“TGATACTCCCGGTCCCATGTCACCGACAAGTATAATCGTTCGGAGTCACCTAGTGCAG”: the binding signal is 4810 fluorescence intensity (a.u.).

Consider “TATCCGTATGTGTTTAGAGCTGACTTGTAGGGTAGTATTGCGGAGTCACCTAGTGCAG”, for which the binding signal is 4160 fluorescence intensity (a.u.).

Turning to “TATTAAACTTGCTCTAAACGTCATCAATCAATTGATCAAGCGGAGTCACCTAGTGCAG”, the binding signal was 5340 fluorescence intensity (a.u.).

As to “AGTTGGGAACCTCTCAAAATGCACCTAGAATTAACCTCTCCGGAGTCACCTAGTGCAG”, the binding signal was 3500 fluorescence intensity (a.u.).

Regarding “GGAAATGCATGCATTTGCAGGGCTTCATGGAGCGCCTGGACGGAGTCACCTAGTGCAG”, the binding signal was 24800 fluorescence intensity (a.u.).

Take “TTGATTGGTTACAACTACATAAGAGGACTCTTAATACCAACGGAGTCACCTAGTGCAG”: the binding signal was 37900 fluorescence intensity (a.u.).

“TCGGCAATGGCATGCATCTTCTGTTTTAAAATATAGGCATCGGAGTCACCTAGTGCAG”: the binding signal was 3290 fluorescence intensity (a.u.).

Consider “CGAATCCCGGGCGATGGTTGTCCGGCTGCCGTGTCGTGTACGGAGTCACCTAGTGCAG”, for which the binding signal is 4360 fluorescence intensity (a.u.).

For “AGTGCATGCGTGTGCGCCTGCCTGCTTACTTCCATCTCGACGGAGTCACCTAGTGCAG”, the binding signal was 7880 fluorescence intensity (a.u.).

As to “GTGGTTCTCTGATGTTTAAGCATCAGCTTGAATTCTGAACCGGAGTCACCTAGTGCAG”, the binding signal is 3750 fluorescence intensity (a.u.).

Take “CTCCGGCCTCTACCGCATCTACCACCATCACTAGCTCTCGCGGAGTCACCTAGTGCAG”: the binding signal is 3380 fluorescence intensity (a.u.).

Take “GCGGCCGACGAGGAGATCCGCGCCATGATACGCGTGGCCGCGGAGTCACCTAGTGCAG”: the binding signal is 4990 fluorescence intensity (a.u.).

Regarding “TCTGTTTAGTTACATCACTGATGGTCTTGATTTCGCAGTGCGGAGTCACCTAGTGCAG”, the binding signal is 4040 fluorescence intensity (a.u.).

On to “ATCTTTATATGTCGACTCACCACAAATCCTTTATATTGCACGGAGTCACCTAGTGCAG”, for which the binding signal is 4660 fluorescence intensity (a.u.).

“CTTTATATAGAAAAGTTTCCCCAGAAATTGTTTGTATAGACGGAGTCACCTAGTGCAG”: the binding signal is 23300 fluorescence intensity (a.u.).

With “AATAATTGAAAATTTTGTTTGAGTGCACATCGTGTGCATTCGGAGTCACCTAGTGCAG”, the binding signal was 7610 fluorescence intensity (a.u.).

On to “ATCTAGCTAGTAGCAGTAGATTCAGTGTCAGCATATATACCGGAGTCACCTAGTGCAG”, for which the binding signal was 6200 fluorescence intensity (a.u.).

Consider “TAACATGTGTGTCCAGTGACAAATTCTTATTTACCACTTACGGAGTCACCTAGTGCAG”, for which the binding signal was 22100 fluorescence intensity (a.u.).

For “CTCGGCGGCGGCGGAAGGCGAGCTTGGCGGCCGACGTGGACGGAGTCACCTAGTGCAG”, the binding signal is 8140 fluorescence intensity (a.u.).

On to “ACAATAGGTAGTGTGGTGCATCTTATCTCCACGACTCCCCCGGAGTCACCTAGTGCAG”, for which the binding signal was 3170 fluorescence intensity (a.u.).

For “CCATCGCCGCCGCCCTCTTCTTCTTCTTCTTGCGAAGCAACGGAGTCACCTAGTGCAG”, the binding signal is 19100 fluorescence intensity (a.u.).

Consider “CTTTGGATCCACAGTCGCCTGGGACCCACCTGTCATCCGGCGGAGTCACCTAGTGCAG”, for which the binding signal is 3220 fluorescence intensity (a.u.).

Turning to “AGTGCATAAGACTTGCTGATCTGGTCACCATTGGAACTGGCGGAGTCACCTAGTGCAG”, the binding signal is 4880 fluorescence intensity (a.u.).

In the case of “TTGGCTGATGTCCAAAGTGTGAGCTTGGTGTTGCTTTGCTCGGAGTCACCTAGTGCAG”, the binding signal is 3600 fluorescence intensity (a.u.).

For “CCCTTGTGTGCGTTATATATTACGGGCGTATAAACACTTACGGAGTCACCTAGTGCAG”, the binding signal is 3330 fluorescence intensity (a.u.).

Turning to “AAGTCTGCTATCATTGCGTAATCACGGTTTGTGCCTTTGTCGGAGTCACCTAGTGCAG”, the binding signal was 4210 fluorescence intensity (a.u.).

Consider “AGTGCTAGCCACTAACATGTGGGGCTATATGGGTCTCACGCGGAGTCACCTAGTGCAG”, for which the binding signal is 5570 fluorescence intensity (a.u.).

For “CCGATGTGAAACTGTGACGAATCGTGCCACATTTCAACTGCGGAGTCACCTAGTGCAG”, the binding signal was 5470 fluorescence intensity (a.u.).

For “AACCCTTTTCATCCTGTCACGCCACCGAGGCACCCGCCTCCGGAGTCACCTAGTGCAG”, the binding signal is 6200 fluorescence intensity (a.u.).
